Experimental data: the supplement of paper PMC5949888
Most values lie at the floor of the assay. Slopes are relative: functional sequences can read slightly below zero.

The substances below were run on Saccharomyces cerevisiae PS128 hsf1 delta, HSF1(1-493) fusion (assay: growth estimate (transactivation domain function in HSF1 fusion, heat-shock survival) (a.u. (slope of normalised read count over time)); higher = stronger growth at 37°C, i.e. more transactivation activity). Conditions: library: random library.
Procedure: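 Random 60-nt DNA library encoding peptides of up to 20 aa, fused to the C-terminus of yeast HSF1 residues 1-493 (C-terminal TAD deleted) and expressed from the native HSF1 promoter on a CEN plasmid in hsf1-deleted S. cerevisiae PS128. Cells were selected at 37°C on -trp 5-FOA plates for 0, 2, 4, 6 and 8 days and amplicons were sequenced. Growth estimate is the slope of a robust linear fit of total-sum-normalised read counts (normalised to the first time point) over time, using at least 2 replicates. Sequences are classed functional (TAD activity) above a threshold of -0.13, set from stop-codon control sequences.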
With DGAKRTELIPSPLEPIGCHP the growth estimate was under -0.25. With DGCRDRNSTGYGNIEVSLFG the growth estimate was under -0.25. DGF showed a growth estimate of under -0.25. Substance DGFITRQLCVTGRCGAVPSR has a growth estimate of under -0.25. Substance DGGAKRSISRGIGRYESTLQ has a growth estimate of under -0.25. With DGGCGTR the growth estimate was under -0.25. For DGGQALSGQSFPRTGGLAGE, the growth estimate was under -0.25. With DGHELDWFPTT the growth estimate was under -0.25. In the case of DGKCASREPAFDGTTDSFSR, the growth estimate is reported as under -0.25. For DGLGVRRYQKITTVRNVNLC, the growth estimate was under -0.25. DGLKKCDSRD was tested, and the growth estimate was under -0.25. DGLVCLLLRSHIIRLSLKRG was tested, and the growth estimate was under -0.25. Substance DGMGPNSASSKAA has a growth estimate of under -0.25. DGNLATYQNLSRLVWT showed a growth estimate of -0.245. DGRTLCGQTRCRYLTQPTAH was tested, and the growth estimate was under -0.25. With DGRTMGKVMARRLEMK the growth estimate was under -0.25. In the case of DGSGCFSYALRCVLPSRYSG, the growth estimate is reported as -0.231. DGSHPCGVGTTFWDGPRR was tested, and the growth estimate was under -0.25. DGSRRGPVKGSLNGH was tested, and the growth estimate was under -0.25. For DGSTST, the growth estimate was under -0.25. Work on DGTANASNVASKSTAREGSA yielded a growth estimate of under -0.25. DGTS showed a growth estimate of under -0.25. DGTYGYMESRRHTLAVVGAV gave a growth estimate of under -0.25. Work on DGWEYIALVYWFMIFRRASY yielded a growth estimate of under -0.25. In the case of DHFCSLTLQAIETTGSVSEH, the growth estimate is reported as under -0.25. DHFSSS was tested, and the growth estimate was under -0.25. Work on DHG yielded a growth estimate of under -0.25. Substance DHGKLRLTRRFWCRRDTRQL has a growth estimate of under -0.25. DHHIVLERLEAHPAYFGIVL was tested, and the growth estimate was under -0.25. DHIFQLVGFRIHGRKFDHLI was tested, and the growth estimate was 0.0323. With DHLRVGAFMGAIYCQGRFKS the growth estimate was under -0.25. For DHLWWYIAVMGCRPGVRFDR, the growth estimate was under -0.25. Substance DHPGRKLKCVGFRTIRYIPA has a growth estimate of under -0.25. DHRQNVRRVLYGYAVGRRLA gave a growth estimate of under -0.25. With DHVTISNGKVGAGLATSSCG the growth estimate was under -0.25. Substance DHVWPTGVRGS has a growth estimate of under -0.25. DIALGVCQILKRAREYDSAR showed a growth estimate of under -0.25. DIALRQPNSSDESLPIQSIC was tested, and the growth estimate was under -0.25. In the case of DICESREGRSIVRGTCSPIA, the growth estimate is reported as under -0.25. DIDR was tested, and the growth estimate was under -0.25. DIEFGGQSPEMGLD showed a growth estimate of -0.0912. Substance DIFRTIAQALGFWARDQRWG has a growth estimate of under -0.25. DIIIDLC showed a growth estimate of under -0.25. For DIMCGRSN, the growth estimate was under -0.25. With DIQARCN the growth estimate was under -0.25. DIRRGGVAQEILVTRSGISN showed a growth estimate of under -0.25. Work on DITT yielded a growth estimate of under -0.25. DITVAADGRTQLTGSANVRH gave a growth estimate of under -0.25. Substance DIVLGCNGYLPSTDYVFVLQ has a growth estimate of under -0.25. Substance DKF has a growth estimate of under -0.25. With DKNIGQAGRGGIRGVGM the growth estimate was under -0.25. Work on DKRPPCKHRQCGKCTH yielded a growth estimate of under -0.25. DKRQLQNRNDR gave a growth estimate of under -0.25. With DKTVVKSKQQHQRYR the growth estimate was under -0.25. DKVQCRVRLDYYPYSRLSEL gave a growth estimate of under -0.25. Substance DKVVCFITWHVY has a growth estimate of -0.229. DLA gave a growth estimate of under -0.25. With DLAP the growth estimate was -0.245. DLDRLLYDAWREGCFQWVPE showed a growth estimate of 5.71. DLETIDGTDDAQAVPCLRWS was tested, and the growth estimate was under -0.25. DLFLLT gave a growth estimate of -0.236. DLFVNGSE showed a growth estimate of under -0.25. DLGGQAEI was tested, and the growth estimate was under -0.25. Substance DLGKAIEVGRCAREDHLWGF has a growth estimate of under -0.25. In the case of DLGTFDDLDLGQHLTDPRAD, the growth estimate is reported as under -0.25. In the case of DLIAKGDRLIGCTAQSVPGV, the growth estimate is reported as under -0.25. For DLILIFALGEMDVGVCRLSG, the growth estimate was under -0.25. Work on DLKGRKALFKHGANPVSPRK yielded a growth estimate of under -0.25. Work on DLNRGVLSNEGAHSKIVLAS yielded a growth estimate of under -0.25. For DLNTSALVWKAL, the growth estimate was under -0.25. For DLPALHVGLRPYFI, the growth estimate was under -0.25. For DLPPF, the growth estimate was under -0.25. DLPRNEENTGGNRH showed a growth estimate of under -0.25. DLPYGVVNEPVS gave a growth estimate of under -0.25. With DLRVVVSRYQVKV the growth estimate was under -0.25. DLSSLWGLITCRTVSVENRV gave a growth estimate of under -0.25. In the case of DLSVVDDKLGRFKF, the growth estimate is reported as under -0.25. With DLSVVLVGAAA the growth estimate was under -0.25. DLTLALLS showed a growth estimate of under -0.25. DLVWGMGRVSDLLSR was tested, and the growth estimate was under -0.25. DLYVPSGCVSLRLQINTRHI was tested, and the growth estimate was under -0.25. DMFTLVFISSIY was tested, and the growth estimate was under -0.25. Substance DMGPRQEASGYLTLFSSAHA has a growth estimate of under -0.25. Substance DMSSLPNQENAGVAPDLTAL has a growth estimate of under -0.25. For DNAIR, the growth estimate was under -0.25. Substance DNATFWSLDW has a growth estimate of -0.25. Work on DNELMTTRT yielded a growth estimate of under -0.25. DNG was tested, and the growth estimate was under -0.25. Substance DNMGDIVRGARCKTGARCVE has a growth estimate of under -0.25. For DNMRNLCTILPTLHLAF, the growth estimate was under -0.25. Work on DNMSRWWIIRSIAARLCARA yielded a growth estimate of under -0.25. DNSIGESGIIRRYEIVTELA gave a growth estimate of under -0.25. In the case of DNSNYALIMACGCAPPESGR, the growth estimate is reported as under -0.25. In the case of DPDGGQSVW, the growth estimate is reported as under -0.25.
